From publication PMC6345753 come the findings set out here.

For data set [1], the system named is PPARγ + RXRα. The experiment in a line: EMSA. The following applies: labeled mutant probe; 4 fmol labeled DNA, 3.7 pmol PPARγ, 3.9 pmol RXRα in 20 µl; 20 ng poly(dI.dC), 2.5% glycerol, 0.05% NP-40, 5 mM MgCl2; on ice 20 min; 4% native gel, 1x TBE, 4 °C; recombinant protein; label: 3' biotin (unlabeled as competitor). In general terms: Mobility shift assays separate free from complexed probe on a gel.

The test system of data set [2] is PPARγ + RXRα. The experiment in a line: competition with a labelled probe. The following applies: 200-fold unlabeled, vs labeled consensus PPRE; 4 fmol labeled DNA, 3.7 pmol PPARγ, 3.9 pmol RXRα in 20 µl; 20 ng poly(dI.dC), 2.5% glycerol, 0.05% NP-40, 5 mM MgCl2; on ice 20 min; 4% native gel, 1x TBE, 4 °C; recombinant protein; label: 3' biotin (unlabeled as competitor).

Construct, isoform or probe ends are uncertain for at least one entry. For some assays here: No signal at the amounts used counts as a negative. At least one verdict rests on a figure or table, not on a statement of the authors.

For “CAAAACTAGCACAAAGCACA (double strand) [consensus PPREmt]”, in the data set on PPARγ + RXRα [1], the binding result is on record as “no binding”.
Regarding “CAAAACTAGGTCAAAGGTCA (double strand) [consensus PPRE]”, the binding result with PPARγ + RXRα [2] is reported as “binds”.
